# Test results from the supplement of paper PMC3334620.
# Over roughly 33,000 sequences, “E-score (-0.5 to 0.5)” has its median near -0.0034; the highest 2% begin near 0.25. This is one part of the list.
# Target: T1, Yap3 (UniProt P38749)
# T1 sequence: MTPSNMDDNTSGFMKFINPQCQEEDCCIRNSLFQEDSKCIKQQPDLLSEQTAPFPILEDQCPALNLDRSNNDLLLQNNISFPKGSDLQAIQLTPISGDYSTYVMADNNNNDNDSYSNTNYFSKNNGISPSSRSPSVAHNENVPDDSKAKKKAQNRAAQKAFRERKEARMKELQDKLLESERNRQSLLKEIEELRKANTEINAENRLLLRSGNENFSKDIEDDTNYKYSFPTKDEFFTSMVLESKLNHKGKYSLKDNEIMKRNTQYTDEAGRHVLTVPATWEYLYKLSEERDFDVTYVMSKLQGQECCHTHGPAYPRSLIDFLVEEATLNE
# Experiment: PBM E-score (8-mer binding enrichment) (E-score (-0.5 to 0.5)); higher = stronger / more preferred TF binding
# Details: protein concentration: 100 nM; construct: GST-full length
# Outline: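 Using PURExpress in vitro transcription/translation, GST-tagged yeast transcription factors were made in full-length or DNA-binding-domain form. These were applied at about 100-200 nM to double-stranded universal all-10-mer Agilent arrays, and bound protein was detected with fluorescent anti-GST. Scans were normalised with masliner before the Universal PBM Analysis Suite assigned E-scores to ungapped eight-base words pooled with their reverse complements.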
row,Sequence,PBM E-score
1,AAGTCTAA,-0.00741
2,GGACGGCC,-0.255
3,AACAATAT,0.329
4,ACAAACCC,0.0449
5,CACCGGAG,-0.177
6,AGGGGAGC,-0.384
7,CTAATTAA,0.135
8,AAACAATT,0.145
9,AAACGGTG,-0.00966
10,CTTAATGC,0.108
11,CATCCTTC,-0.00124
12,CGGTATAG,-0.0576
13,TACGCCCA,0.0336
14,AGTACACG,-0.124
15,GGTAACAA,0.252
16,CATACTAC,0.0922
17,AGAAACGG,0.0489
18,GCTGATTA,0.21
19,GACGCGTA,0.122
20,AGTCGCCG,-0.0223
21,AAGTTGTC,0.123
22,CAGCTCGA,-0.14
23,CTGTTCCC,-0.169
24,CGGGGATC,-0.418
25,GAAATCAC,0.181

row,Sequence,PBM E-score
1,AAAATTCT,-0.0112
2,CCGCTACC,-0.0126
3,ACCCAAAT,0.161
4,GATAGGGA,-0.0796
5,AGACACTA,0.0692
6,ATGTGGTC,0.139
7,TAAGTGCA,0.2
8,AATCATAA,0.222
9,ATGTCCCA,-0.17
10,GGATGCTA,-0.0998
11,ATTCCAAG,0.0692
12,CACTCGGA,0.0619
13,ACCCCGCT,-0.0798
14,TACCTGCA,0.0553
15,AACCACGT,-0.0393
16,ACTCCTGA,0.0624
17,GAGAAAGC,0.0794
18,CCAGTTGA,-0.118
19,GATAGATC,-0.119
20,AGTCAGTA,0.109
21,ATAATTTC,0.17
22,GCTCCTCA,-0.305
23,AGTCCTTC,-0.286
24,ATAGGAAA,0.211
25,GCCAAACC,-0.137

row,Sequence,PBM E-score
1,ATCCTATC,0.0904
2,GTGAGACA,0.105
3,ACGAACCC,-0.133
4,CCGAAGAA,-0.0268
5,TATACTCA,0.155
6,GCCGGCCA,0.0617
7,ACTCAACC,-0.00359
8,AATTCCGG,-0.00094
9,AGTCAGTC,-0.0469
10,GAGCTAAC,0.0153
11,ACCCCAAT,0.0033
12,CAAAGCAA,0.195
13,CGAGCGGC,-0.0247
14,CGATGCCG,-0.194
15,CCCATCCA,-0.104
16,AGAATTGC,0.141
17,CAATAACA,0.0825
18,CCAAGGAC,-0.21
19,CAAGCTGC,0.0459
20,AGTGCTAC,-0.0705
21,TCGATCAA,-0.0612
22,AGAACGCA,0.0488
23,TGAGCAAA,0.109
24,ACACCGAT,-0.138
25,CAATATAC,0.112

row,Sequence,PBM E-score
1,CTCGCGTC,0.0984
2,CCGGCGTC,-0.105
3,ACCGCATA,0.128
4,AGTTGACA,0.0993
5,CGTGCTTA,-0.0066
6,ACTATTCT,0.109
7,GCCATCCC,-0.192
8,CCTACATC,0.0258
9,GCTCATCA,-0.042
10,ACAGACAC,-0.0498
11,CACAAAAC,0.212
12,CCCCATCC,-0.233
13,GAATTATC,0.196
14,CGTGCATA,0.111
15,TTAGATAA,0.117
16,TCGGACAA,0.161
17,GACATCGC,-0.0744
18,ATAAGGTG,-0.00609
19,ATGGTCCA,-0.0556
20,CCCTAGGA,-0.166
21,AGGTACAT,-0.0473
22,CTCGTATC,0.164
23,CAACAGTC,-0.0135
24,CGGTTTCC,-0.176
25,AATCACGA,-0.0872

row,Sequence,PBM E-score
1,TCTGTCAA,0.0825
2,ATGTCCGC,-0.0298
3,CTGTCTGA,-0.15
4,GGTTAGAA,-0.0731
5,TACTAGAA,0.127
6,AACGGAGT,0.0613
7,ACGTAAGC,0.253
8,CGAGGTGC,0.0929
9,GCTAGCTA,-0.0775
10,ATCTCGTA,0.0784
11,AAGCTATA,-0.0235
12,GTTGCGTA,0.0691
13,CGAAATAC,0.151
14,AGGTCAAG,-0.167
15,CCCGCTTA,0.111
16,GCAGCTCC,-0.194
17,CGTAACGC,-0.0157
18,CAGCCATG,-0.0386
19,AGCAAATA,0.0245
20,GGCTCTAA,0.00316
21,CAAGGGTC,-0.0382
22,GGGTTGCA,-0.0127
23,AAGATTGC,-0.0678
24,CTGCGTGA,0.0181
25,GGTATGAA,0.146

row,Sequence,PBM E-score
1,AAAGTTAT,0.192
2,CCAGATAG,-0.0894
3,CGGTATTC,0.119
4,ATGGAGAC,0.0733
5,GAGCCCAA,0.0486
6,CTCGAGTC,0.00476
7,CATGCACC,-0.191
8,ATTATATC,0.16
9,GGCAGATA,-0.0297
10,CCCACCGA,-0.00222
11,TAATCTGA,0.109
12,ACGCTTTA,-0.00756
13,CAGGTCAC,-0.324
14,CGATTTCC,0.0259
15,CTATCTGA,-0.111
16,GCCGTCGC,-0.0101
17,CATCCACA,-0.015
18,CGACCATC,-0.17
19,ATGTGCTA,-0.0154
20,AACTTGAG,-0.163
21,GTCCCACA,0.157
22,AGTAACTC,-0.0684
23,ATCGAAGG,0.0368
24,GTGTGAAA,0.133
25,GTAGTACA,0.14

# Some of the entries so far, as tab-separated lines:
row	Sequence	PBM E-score
5	CGTGCTTA	-0.0066
6	ACTATTCT	0.109
7	GCCATCCC	-0.192
8	CCTACATC	0.0258
9	GCTCATCA	-0.042
10	ACAGACAC	-0.0498
11	CACAAAAC	0.212

# Further entries:

row,Sequence,PBM E-score
1,ATCACGAT,-0.192
2,GGACAGGA,-0.149
3,ACGCTAAG,-0.0131
4,CTTGTCCC,0.0214
5,ATTTCGAA,0.261
6,GAAACTCC,-0.238
7,CTTTTATC,0.178
8,ACATGACC,-0.0596
9,TCAGATCA,-0.0696
10,GTACGAGA,-0.0384
11,AGTAAGAC,0.0181
12,GGTGAAAC,-0.0882
13,ACGCAGAG,-0.0117
14,GGTTAAGA,0.0435
15,AGTGTGGG,-0.0508
16,GGCGATTA,-0.0177
17,AGCAAAGG,0.0634
18,AATGCTAA,0.0709
19,CAGGCGAC,-0.196
20,AGCCGAGG,-0.052
21,AATTTGAA,0.131
22,GATCTAGC,-0.085

# Another view of some results above:
row | Sequence | PBM E-score
5 | CACCGGAG | -0.177
6 | AGGGGAGC | -0.384
